Assay: Example 5: change in humidity of cannabis plant matter after disinfection
Conditions: H2O2. Two 10 minute pulses, with UV Irradiation

OO [hydrogen peroxide]
Change in Humidity (Batch 4, 1 Hz for 10 seconds every 30 seconds): −2.25 percent by weight
Change in Humidity (Batch 5, 1 Hz for 5 seconds every 10 seconds): −2.36 percent by weight
